Binding data for one substance are collected here from publication PMC10878152.

Protein sequences, listed by entry. Tags and fused reporters are not part of them.
UniProt Q91X83: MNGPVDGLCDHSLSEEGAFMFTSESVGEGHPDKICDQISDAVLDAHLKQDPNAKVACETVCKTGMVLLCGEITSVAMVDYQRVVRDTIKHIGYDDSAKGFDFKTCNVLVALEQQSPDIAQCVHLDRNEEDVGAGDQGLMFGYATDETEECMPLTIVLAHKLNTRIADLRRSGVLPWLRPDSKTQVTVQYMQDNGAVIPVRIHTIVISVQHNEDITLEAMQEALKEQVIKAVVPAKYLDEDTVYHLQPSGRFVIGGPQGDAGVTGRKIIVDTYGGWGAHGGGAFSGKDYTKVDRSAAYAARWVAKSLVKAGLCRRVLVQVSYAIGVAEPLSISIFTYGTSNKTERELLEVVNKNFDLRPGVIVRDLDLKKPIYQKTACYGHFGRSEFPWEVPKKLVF
UniProt Q78YY6: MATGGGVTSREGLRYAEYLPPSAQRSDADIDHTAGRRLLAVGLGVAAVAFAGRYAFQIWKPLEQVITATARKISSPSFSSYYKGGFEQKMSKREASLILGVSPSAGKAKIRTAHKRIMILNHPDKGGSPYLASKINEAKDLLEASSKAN

No constants are given. Whether binding was seen depends on the method and setting. Binding seen in cells or lysates may run through a third protein. Some binding calls cover weakened binding; strength is not graded here.

The target in assay [1] is methionine adenosyltransferase alpha 1 (MATα1), mouse (mouse (endogenous in mouse liver)) (UniProt Q91X83). Kind of assay: co-IP; 350 ug of liver mitochondrial fraction, pre-cleaned with normal Ig and protein A+G-agarose; IP with 3 ug anti-MATα1 or anti-MCJ antibody overnight at 4°C; washed five times with IP buffer (150 mM NaCl, 0.5% deoxycholate, 0.1% SDS, 1% NP-40, 50 mM Tris-HCl pH 7.5); western blot; normal Ig as control.

For assay [2] the target is unchanged. The experiment in a line: co-IP; 700 ug of whole liver or cell extract, pre-cleaned with normal Ig and protein A+G-agarose; IP with 3 ug anti-MATα1 antibody overnight at 4°C; washed five times with IP buffer (150 mM NaCl, 0.5% deoxycholate, 0.1% SDS, 1% NP-40, 50 mM Tris-HCl pH 7.5); western blot; normal Ig as control.

Take “MCJ (Methylation-Controlled J protein), mouse (from UniProt Q78YY6 1-149)”: the binding entry in assay [1] and in assay [2] was “binds” in each case.
